From publication PMC12632257
Results are given in words; binding and its absence hold for the method and conditions named. Some results given as binding are weak or reduced against the parent protein; the word gives no strength. Where a sequence is shown, tags or fusion partners need not be part of it.

Molecular target: T1, AraQ, a TMD from the AraNPQ importer, fused to fragment T25 (B. subtilis) (UniProt P94530)
T1 sequence: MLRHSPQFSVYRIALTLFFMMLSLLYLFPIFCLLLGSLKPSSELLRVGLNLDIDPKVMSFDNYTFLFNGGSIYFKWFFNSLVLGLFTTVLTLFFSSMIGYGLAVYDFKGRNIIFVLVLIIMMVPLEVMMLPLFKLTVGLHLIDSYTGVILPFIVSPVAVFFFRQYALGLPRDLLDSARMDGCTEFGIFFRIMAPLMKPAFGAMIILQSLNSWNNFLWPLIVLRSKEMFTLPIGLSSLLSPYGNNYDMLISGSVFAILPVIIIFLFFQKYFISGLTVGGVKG
Assay: two-hybrid; bacterial adenylate cyclase two-hybrid (B2H) in E. coli BTH101; ATPases fused to T18 (pUT18), TMDs fused to T25 (pKT25 or pKNT25); LB with antibiotics and 0.5 mM IPTG, 30°C; β-galactosidase activity and spotting on X-Gal plates

B1: MsmX, multitask nucleotide-binding domain (NBD, ATPase), fused to fragment T18 (enzyme, UniProt P94360 1-365)
chain: MAELRMEHIYKFYDQKEPAVDDFNLHIADKEFIVFVGPSGCGKSTTLRMVAGLEEISKGDFYIEGKRVNDVAPKDRDIAMVFQNYALYPHMTVYDNIAFGLKLRKMPKPEIKKRVEEAAKILGLEEYLHRKPKALSGGQRQRVALGRAIVRDAKVFLMDEPLSNLDAKLRVQMRAEIIKLHQRLQTTTIYVTHDQTEALTMATRIVVMKDGKIQQIGTPKDVYEFPENVFVGGFIGSPAMNFFKGKLTDGLIKIGSAALTVPEGKMKVLREKGYIGKEVIFGIRPEDIHDELIVVESYKNSSIKAKINVAELLGSEIMIYSQIDNQDFIARIDARLDIQSGDELTVAFDMNKGHFFDSETEVRIR
B1 was tested, and the binding was “binds”.
